In publication PMC9767466:
Results are given in words; binding and its absence hold for the method and conditions named. A result given as binding can be weak or reduced; the word gives no strength. For part of these data: Sequences can lack the tags named with a protein. For part of these data: In cells and extracts the contact can be indirect.

B1: LgBiT-EROS (protein, UniProt Q9BQA9 1-187)
chain: MYLQVETRTSSRLHLKRAPGIRSWSLLVGILSIGLAAAYYSGDSLGWKLFYVTGCLFVAVQNLEDWEEAIFDKSTGKVVLKTFSLYKKLLTLFRAGHDQVVVLLHDVRDVSVEEEKVRYFGKGYMVVLRLATGFSHPLTQSAVMGHRSDVEAIAKLITSFLELHCLESPTELSQSSDSEAGDPASQS
B2: gp91phox-GFP (protein, UniProt Q61093 1-570)
chain: MGNWAVNEGLSIFVILVWLGLNVFLFINYYKVYDDGPKYNYTRKLLGSALALARAPAACLNFNCMLILLPVCRNLLSFLRGSSACCSTRIRRQLDRNLTFHKMVAWMIALHTAIHTIAHLFNVEWCVNARVGISDRYSIALSDIGDNENEEYLNFAREKIKNPEGGLYVAVTRLAGITGIVITLCLILIITSSTKTIRRSYFEVFWYTHHLFVIFFIGLAIHGAERIVRGQTAESLEEHNLDICADKIEEWGKIKECPVPKFAGNPPMTWKWIVGPMFLYLCERLVRFWRSQQKVVITKVVTHPFKTIELQMKKKGFKMEVGQYIFVKCPKVSKLEWHPFTLTSAPEEDFFSIHIRIVGDWTEGLFNACGCDKQEFQDAWKLPKIAVDGPFGTASEDVFSYEVVMLVGAGIGVTPFASILKSVWYKYCDNATSLKLKKIYFYWLCRDTHAFEWFADLLQLLETQMQERNNANFLSYNIYLTGWDESQANHFAVHHDEEKDVITGLKQKTLYGRPNWDNEFKTIASEHPNTTIGVFLCGPEALAETLSKQSISNSESGPRGVHFIFNKENF

What was measured:
P2X7-SmBiT = experiment: split reporter; NanoBiT in live HEK293T / HEK293 cells; LgBiT and SmBiT fusions on separate (TK) vectors, 1:1; luminescence read after Nano-Glo Live cell substrate
[1] = biological target: StrepII-FLAG-tagged EROS (pEGBacMam-Strep-FLAG-Strep-EROS) (not stated (human in p-0042, mouse in p-0012)); experiment: SEC; Streptactin eluate of EROS from HEK293-F cells run on a Superose 6 column; protein (280 nm) and heme (414 nm) traces; fractions immunoblotted for gp91phox-GFP, EROS-FLAG and p22phox
[2] = biological target: StrepII-FLAG-tagged EROS (pEGBacMam-Strep-FLAG-Strep-EROS) (not stated (human in p-0042, mouse in p-0012)); experiment: co-IP; HEK293-F cells co-transfected with StrepII-FLAG-EROS, gp91phox-GFP and p22phox; membranes solubilised with 1% LMNG in 50 mM HEPES pH 7.5, 100 mM NaCl, 20% glycerol; EROS held on Streptactin resin, eluted with 5 mM desthiobiotin; Western blot for gp91phox; cells with or without succinyl acetone

Binder	binding (P2X7-SmBiT)	binding [1]	binding [2]
B1	binds	–	–
B2	–	binds	binds
